This passage reports binding results from publication doi:10.1101/2020.11.10.376210.

Sequences of proteins named here, by UniProt entry; tags and fusion partners are left off. A change or cut given only in a name is not applied to a line headed by its entry.
UniProt Q0KHY3: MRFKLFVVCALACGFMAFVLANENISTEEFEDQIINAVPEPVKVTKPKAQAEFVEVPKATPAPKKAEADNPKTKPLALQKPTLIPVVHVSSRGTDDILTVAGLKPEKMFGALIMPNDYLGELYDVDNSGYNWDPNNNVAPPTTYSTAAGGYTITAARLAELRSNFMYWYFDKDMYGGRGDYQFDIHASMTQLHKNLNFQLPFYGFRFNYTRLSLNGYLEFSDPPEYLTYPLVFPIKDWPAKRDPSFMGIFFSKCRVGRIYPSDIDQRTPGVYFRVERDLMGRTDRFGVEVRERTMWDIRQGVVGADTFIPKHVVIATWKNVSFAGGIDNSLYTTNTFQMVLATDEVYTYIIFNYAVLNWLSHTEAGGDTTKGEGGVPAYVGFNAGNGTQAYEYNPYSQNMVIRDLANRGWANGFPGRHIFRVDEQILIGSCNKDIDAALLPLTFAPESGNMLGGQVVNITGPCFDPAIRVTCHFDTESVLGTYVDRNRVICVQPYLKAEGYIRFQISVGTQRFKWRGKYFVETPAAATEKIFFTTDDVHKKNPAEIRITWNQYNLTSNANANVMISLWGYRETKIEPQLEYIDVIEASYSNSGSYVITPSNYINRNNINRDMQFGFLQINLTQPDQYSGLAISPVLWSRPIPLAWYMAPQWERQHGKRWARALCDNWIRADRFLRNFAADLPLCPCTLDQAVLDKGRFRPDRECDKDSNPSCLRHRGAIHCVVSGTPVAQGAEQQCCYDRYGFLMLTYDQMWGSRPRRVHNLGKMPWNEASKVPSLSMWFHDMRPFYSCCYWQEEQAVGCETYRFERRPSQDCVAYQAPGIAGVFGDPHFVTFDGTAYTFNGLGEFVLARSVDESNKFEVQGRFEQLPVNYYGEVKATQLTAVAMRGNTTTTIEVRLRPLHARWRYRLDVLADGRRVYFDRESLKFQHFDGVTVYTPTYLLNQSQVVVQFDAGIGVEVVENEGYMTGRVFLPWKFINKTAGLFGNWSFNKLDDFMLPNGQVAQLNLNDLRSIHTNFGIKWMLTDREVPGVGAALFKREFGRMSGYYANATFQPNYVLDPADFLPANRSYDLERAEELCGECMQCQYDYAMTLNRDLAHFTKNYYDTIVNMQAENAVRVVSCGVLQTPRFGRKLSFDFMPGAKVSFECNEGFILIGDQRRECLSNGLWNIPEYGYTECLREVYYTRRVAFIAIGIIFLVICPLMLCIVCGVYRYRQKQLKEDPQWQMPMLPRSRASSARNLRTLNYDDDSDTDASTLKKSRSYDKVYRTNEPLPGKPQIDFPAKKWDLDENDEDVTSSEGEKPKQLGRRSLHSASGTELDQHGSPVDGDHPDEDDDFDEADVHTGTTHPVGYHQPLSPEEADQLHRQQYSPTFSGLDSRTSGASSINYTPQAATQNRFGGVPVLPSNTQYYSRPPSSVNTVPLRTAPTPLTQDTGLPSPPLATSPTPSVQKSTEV

These are yes or no findings as the source states them, for the method shown. In cells and extracts the contact can be indirect. Binding calls can cover weak binding; strength is not graded here. For some assays here: Where a sequence is shown, tags or fusion partners need not be part of it.

Assay in all cases: co-IP
Experiment [1] addresses T1, Snakeskin (Drosophila (endogenous in embryos)) (UniProt Q9VW87).
T1 sequence: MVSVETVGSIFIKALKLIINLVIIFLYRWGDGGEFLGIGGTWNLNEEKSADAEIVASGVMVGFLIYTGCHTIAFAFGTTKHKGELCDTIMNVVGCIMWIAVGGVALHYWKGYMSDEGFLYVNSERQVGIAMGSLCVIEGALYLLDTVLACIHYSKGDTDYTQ

Experiment [2] deals with T2, enhanced GFP (EGFP)-Tsp2A (Drosophila) (UniProt O46101).
T2 sequence: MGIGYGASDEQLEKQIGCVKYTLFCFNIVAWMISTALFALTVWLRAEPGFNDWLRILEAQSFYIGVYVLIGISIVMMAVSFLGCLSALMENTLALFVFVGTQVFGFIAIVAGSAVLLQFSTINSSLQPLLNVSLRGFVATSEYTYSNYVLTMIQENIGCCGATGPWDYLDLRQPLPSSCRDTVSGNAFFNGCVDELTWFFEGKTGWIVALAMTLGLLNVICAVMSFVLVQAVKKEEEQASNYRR

Experiment [3] has as its target Mesh (Drosophila (endogenous in embryos)) (UniProt Q0KHY3).
The target of experiment [4] is Hoka (Drosophila (endogenous in embryos)).

Regarding Mesh (from UniProt Q0KHY3), the binding result in experiment [1] is listed as “binds”.

In the case of “Hoka (Drosophila (endogenous in embryos))”, the binding result in experiment [1] and in experiment [2] was “binds” throughout.

B1: Snakeskin (protein, UniProt Q9VW87 1-162)
chain: T1 sequence
Consider B1, for which the binding result in experiment [3] and in experiment [4] was “binds” in each case.
